These are yes or no findings as the source states them, for the method shown. Binding seen in cells or lysates may run through a third protein. These calls come from enrichment with a bait or labelling near it, and not all partners need be listed. A no says only that the protein was not detected with the bait. Where a sequence is shown, tags or fusion partners need not be part of it.
Target: T1, Shisa7 (native, mouse hippocampus) (mouse (endogenous in hippocampus)) (UniProt Q8C3Q5)
T1 sequence (chain, N-linked glycans (removed by PNGase-F)): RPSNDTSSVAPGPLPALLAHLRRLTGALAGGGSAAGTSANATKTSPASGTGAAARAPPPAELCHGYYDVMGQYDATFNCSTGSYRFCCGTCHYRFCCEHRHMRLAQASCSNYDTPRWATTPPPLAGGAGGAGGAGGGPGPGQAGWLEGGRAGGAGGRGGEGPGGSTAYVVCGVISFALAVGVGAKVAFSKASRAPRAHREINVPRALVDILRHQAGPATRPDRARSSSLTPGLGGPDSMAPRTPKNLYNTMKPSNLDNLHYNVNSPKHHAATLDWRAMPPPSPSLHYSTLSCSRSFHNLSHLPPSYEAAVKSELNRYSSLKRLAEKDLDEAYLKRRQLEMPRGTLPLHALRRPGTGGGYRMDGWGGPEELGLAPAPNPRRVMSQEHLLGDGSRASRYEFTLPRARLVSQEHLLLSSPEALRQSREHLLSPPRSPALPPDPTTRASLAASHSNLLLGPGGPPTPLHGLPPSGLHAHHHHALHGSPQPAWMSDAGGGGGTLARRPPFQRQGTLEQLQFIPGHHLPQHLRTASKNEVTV
Test: affinity purification with mass spectrometry; anti-Shisa7 immunoprecipitation from DDM-extracted crude synaptic membranes of mouse hippocampus, WT against Shisa7 KO, n = 3 IPs per genotype; SDS-PAGE, in-gel digestion, TripleTOF 5600+

Amino acid sequences for entries named in this document (tags omitted). Residues count along the entry.
UniProt Q9Z2W9, residues 23-888: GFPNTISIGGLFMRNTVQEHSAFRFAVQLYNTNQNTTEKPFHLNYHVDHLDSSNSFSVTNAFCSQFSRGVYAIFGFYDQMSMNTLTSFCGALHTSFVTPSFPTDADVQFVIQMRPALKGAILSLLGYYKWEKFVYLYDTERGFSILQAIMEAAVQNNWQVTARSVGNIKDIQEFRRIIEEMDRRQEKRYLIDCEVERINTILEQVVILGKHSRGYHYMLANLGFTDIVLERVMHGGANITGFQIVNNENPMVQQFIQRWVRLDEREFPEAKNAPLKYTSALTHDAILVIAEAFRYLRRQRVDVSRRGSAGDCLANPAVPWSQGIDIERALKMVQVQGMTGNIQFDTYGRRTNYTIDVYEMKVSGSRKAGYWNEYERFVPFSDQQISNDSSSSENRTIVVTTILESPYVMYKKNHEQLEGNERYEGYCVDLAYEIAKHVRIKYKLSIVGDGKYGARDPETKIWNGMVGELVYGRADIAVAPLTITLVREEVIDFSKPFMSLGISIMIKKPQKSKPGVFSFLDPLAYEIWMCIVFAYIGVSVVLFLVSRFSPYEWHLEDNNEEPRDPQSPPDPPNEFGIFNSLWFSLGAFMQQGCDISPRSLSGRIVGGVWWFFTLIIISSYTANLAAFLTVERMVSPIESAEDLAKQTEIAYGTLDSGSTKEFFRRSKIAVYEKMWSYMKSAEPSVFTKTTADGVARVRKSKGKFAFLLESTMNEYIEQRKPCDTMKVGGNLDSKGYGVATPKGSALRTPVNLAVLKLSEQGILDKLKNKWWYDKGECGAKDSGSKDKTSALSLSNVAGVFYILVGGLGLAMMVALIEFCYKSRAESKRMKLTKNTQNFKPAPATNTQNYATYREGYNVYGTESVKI
UniProt Q3UH99, residues 31-525: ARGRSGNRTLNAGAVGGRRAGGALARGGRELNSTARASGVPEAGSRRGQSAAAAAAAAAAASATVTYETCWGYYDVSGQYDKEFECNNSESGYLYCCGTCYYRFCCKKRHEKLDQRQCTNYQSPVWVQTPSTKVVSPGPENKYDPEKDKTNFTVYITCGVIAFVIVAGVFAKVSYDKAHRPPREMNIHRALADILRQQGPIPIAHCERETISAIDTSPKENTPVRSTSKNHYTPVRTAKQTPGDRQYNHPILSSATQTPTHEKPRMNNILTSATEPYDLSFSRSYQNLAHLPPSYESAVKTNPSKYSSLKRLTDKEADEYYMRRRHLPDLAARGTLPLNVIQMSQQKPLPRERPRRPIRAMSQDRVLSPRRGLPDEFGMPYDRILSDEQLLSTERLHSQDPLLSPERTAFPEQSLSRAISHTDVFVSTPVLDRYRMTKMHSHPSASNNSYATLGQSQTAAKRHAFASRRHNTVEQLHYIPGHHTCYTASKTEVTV
UniProt Q9CZN4, residues 24-424: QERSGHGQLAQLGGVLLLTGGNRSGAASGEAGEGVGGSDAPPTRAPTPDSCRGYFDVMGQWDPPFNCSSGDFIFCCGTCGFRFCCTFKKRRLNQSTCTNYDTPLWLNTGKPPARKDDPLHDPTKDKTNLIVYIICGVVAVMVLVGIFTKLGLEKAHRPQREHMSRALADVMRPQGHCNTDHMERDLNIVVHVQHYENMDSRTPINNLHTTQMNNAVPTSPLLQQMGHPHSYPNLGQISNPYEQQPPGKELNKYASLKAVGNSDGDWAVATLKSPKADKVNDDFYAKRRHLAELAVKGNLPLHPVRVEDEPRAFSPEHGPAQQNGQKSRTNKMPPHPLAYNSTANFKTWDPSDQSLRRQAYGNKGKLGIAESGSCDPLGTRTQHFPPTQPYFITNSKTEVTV

| Substance | binding |
| --- | --- |
| Glutamate receptor 3 (native, mouse hippocampus) (from UniProt Q9Z2W9 23-888) | binds |
| Protein shisa-6 homolog (native, mouse hippocampus) (from UniProt Q3UH99 31-525) | binds |
| Shisa9 (native, mouse hippocampus) (from UniProt Q9CZN4 24-424) | no binding |

Reference: PMC5737659
